Assay results taken from article PMC12767855.
These are yes or no findings as the source states them, for the method shown. Binding seen in cells or lysates may run through a third protein. Here binding means that the protein was enriched with, or labelled near, the bait; the list need not be complete. Tags and fused reporters may be left off the sequences shown. Values belong to the molecule of their own block, whether it stands above or below them.

The chains behind the UniProt entries cited, without tags or fusion partners.
UniProt Q08943: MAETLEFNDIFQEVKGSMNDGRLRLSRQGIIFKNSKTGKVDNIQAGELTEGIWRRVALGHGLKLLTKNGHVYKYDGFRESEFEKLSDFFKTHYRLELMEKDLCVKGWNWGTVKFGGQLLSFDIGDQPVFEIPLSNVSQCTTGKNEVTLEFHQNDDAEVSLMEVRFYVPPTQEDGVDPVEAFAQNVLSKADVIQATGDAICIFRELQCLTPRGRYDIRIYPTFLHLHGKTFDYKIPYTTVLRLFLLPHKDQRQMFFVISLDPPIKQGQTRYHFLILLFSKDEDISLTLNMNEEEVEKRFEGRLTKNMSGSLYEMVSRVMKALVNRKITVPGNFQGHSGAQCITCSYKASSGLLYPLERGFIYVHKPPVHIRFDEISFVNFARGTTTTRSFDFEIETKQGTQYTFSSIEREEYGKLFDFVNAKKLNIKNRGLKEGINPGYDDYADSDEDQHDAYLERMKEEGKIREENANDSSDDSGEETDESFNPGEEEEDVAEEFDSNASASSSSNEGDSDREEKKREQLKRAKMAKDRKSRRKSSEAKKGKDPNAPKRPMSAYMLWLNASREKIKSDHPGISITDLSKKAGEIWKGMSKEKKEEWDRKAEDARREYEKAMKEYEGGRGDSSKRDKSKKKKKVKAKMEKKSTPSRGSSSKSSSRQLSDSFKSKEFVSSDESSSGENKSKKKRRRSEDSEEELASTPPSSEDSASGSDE
UniProt A2AKX3: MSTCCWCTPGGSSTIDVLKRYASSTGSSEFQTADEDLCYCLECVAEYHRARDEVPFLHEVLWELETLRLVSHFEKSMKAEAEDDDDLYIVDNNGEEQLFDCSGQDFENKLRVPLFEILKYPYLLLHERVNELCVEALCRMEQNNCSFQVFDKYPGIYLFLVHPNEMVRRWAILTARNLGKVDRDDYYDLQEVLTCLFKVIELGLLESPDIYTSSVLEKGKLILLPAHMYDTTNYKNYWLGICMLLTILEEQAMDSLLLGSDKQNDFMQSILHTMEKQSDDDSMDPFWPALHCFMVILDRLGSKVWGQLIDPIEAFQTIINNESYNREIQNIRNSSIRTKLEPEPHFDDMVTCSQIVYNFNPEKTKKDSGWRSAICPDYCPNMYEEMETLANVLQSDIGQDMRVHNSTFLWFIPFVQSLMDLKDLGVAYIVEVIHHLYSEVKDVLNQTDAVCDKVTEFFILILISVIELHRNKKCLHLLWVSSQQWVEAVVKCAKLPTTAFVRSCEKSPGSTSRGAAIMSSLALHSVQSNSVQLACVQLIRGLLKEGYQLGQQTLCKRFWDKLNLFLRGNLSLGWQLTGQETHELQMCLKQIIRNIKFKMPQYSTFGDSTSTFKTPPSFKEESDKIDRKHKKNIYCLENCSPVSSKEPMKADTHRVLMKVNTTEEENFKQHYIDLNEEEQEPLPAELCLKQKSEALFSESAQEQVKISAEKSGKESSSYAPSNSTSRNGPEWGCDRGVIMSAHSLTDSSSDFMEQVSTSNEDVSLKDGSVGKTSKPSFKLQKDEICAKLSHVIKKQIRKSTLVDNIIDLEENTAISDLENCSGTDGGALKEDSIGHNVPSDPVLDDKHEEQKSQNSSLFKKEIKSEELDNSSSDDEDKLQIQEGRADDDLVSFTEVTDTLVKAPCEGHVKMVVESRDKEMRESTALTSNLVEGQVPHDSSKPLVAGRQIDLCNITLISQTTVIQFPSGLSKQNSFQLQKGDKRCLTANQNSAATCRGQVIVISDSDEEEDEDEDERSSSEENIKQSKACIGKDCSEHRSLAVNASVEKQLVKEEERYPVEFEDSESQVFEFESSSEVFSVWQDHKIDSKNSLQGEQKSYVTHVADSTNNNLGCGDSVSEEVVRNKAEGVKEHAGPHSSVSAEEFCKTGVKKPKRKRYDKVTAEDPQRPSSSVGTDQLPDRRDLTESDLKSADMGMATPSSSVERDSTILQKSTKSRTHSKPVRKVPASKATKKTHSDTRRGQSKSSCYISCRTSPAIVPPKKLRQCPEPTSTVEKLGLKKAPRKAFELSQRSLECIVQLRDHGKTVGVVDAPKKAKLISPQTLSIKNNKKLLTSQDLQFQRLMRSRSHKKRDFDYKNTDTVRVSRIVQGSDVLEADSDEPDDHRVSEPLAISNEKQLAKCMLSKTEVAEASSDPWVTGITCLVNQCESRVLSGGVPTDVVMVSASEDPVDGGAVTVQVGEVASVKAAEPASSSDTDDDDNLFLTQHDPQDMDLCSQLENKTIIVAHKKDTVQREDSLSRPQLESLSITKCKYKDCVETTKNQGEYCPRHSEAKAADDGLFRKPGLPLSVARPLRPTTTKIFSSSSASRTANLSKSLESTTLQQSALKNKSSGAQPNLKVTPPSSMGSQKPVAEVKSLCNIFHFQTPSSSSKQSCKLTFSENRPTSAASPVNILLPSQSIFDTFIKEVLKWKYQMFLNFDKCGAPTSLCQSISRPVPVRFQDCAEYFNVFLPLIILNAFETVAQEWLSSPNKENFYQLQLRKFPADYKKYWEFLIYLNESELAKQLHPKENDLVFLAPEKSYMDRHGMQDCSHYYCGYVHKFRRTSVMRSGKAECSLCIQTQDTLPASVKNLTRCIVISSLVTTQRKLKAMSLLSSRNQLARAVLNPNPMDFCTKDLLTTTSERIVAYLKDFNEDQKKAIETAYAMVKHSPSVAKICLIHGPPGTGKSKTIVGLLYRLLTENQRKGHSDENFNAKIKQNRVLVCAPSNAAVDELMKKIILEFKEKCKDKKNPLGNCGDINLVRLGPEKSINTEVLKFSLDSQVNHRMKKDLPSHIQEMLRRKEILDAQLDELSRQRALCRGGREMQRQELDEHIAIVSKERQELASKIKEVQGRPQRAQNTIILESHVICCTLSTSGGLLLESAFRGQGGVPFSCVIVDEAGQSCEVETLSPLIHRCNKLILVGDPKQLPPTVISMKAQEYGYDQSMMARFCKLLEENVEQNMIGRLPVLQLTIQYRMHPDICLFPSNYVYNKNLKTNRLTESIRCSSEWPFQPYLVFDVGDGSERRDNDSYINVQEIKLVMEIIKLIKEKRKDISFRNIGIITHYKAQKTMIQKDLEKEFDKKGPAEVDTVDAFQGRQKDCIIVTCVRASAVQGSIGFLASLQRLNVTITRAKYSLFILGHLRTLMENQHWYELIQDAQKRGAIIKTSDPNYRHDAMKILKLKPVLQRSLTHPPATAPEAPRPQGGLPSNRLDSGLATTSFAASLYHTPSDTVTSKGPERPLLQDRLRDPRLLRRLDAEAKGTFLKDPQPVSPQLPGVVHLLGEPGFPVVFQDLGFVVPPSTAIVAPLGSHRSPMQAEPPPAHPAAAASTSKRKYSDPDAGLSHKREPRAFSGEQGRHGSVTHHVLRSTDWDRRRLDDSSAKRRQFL
UniProt Q61142: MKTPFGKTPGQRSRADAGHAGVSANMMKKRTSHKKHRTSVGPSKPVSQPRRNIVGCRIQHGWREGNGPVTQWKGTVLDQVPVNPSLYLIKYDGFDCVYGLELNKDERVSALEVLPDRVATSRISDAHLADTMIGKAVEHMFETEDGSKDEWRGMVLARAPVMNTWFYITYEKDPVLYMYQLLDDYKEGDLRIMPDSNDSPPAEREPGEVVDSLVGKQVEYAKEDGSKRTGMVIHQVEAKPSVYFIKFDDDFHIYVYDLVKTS
UniProt Q8K2F0: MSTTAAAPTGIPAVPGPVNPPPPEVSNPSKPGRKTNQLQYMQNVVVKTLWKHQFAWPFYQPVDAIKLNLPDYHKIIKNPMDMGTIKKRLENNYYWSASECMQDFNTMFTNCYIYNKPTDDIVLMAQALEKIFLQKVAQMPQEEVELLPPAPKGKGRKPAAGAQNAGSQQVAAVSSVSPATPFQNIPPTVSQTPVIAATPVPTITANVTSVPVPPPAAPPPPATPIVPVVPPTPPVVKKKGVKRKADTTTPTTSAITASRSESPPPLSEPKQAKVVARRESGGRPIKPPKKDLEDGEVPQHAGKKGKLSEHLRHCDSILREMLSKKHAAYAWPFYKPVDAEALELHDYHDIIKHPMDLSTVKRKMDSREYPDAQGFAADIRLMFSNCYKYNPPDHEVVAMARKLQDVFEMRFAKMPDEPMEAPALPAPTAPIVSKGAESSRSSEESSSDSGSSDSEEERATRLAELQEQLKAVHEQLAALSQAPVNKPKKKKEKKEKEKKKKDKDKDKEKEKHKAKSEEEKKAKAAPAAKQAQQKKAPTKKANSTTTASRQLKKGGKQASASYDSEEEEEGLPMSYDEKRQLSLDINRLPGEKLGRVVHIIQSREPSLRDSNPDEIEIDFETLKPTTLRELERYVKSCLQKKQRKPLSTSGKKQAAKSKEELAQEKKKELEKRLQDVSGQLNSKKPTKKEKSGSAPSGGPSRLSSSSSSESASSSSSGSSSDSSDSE
UniProt Q6PDQ2: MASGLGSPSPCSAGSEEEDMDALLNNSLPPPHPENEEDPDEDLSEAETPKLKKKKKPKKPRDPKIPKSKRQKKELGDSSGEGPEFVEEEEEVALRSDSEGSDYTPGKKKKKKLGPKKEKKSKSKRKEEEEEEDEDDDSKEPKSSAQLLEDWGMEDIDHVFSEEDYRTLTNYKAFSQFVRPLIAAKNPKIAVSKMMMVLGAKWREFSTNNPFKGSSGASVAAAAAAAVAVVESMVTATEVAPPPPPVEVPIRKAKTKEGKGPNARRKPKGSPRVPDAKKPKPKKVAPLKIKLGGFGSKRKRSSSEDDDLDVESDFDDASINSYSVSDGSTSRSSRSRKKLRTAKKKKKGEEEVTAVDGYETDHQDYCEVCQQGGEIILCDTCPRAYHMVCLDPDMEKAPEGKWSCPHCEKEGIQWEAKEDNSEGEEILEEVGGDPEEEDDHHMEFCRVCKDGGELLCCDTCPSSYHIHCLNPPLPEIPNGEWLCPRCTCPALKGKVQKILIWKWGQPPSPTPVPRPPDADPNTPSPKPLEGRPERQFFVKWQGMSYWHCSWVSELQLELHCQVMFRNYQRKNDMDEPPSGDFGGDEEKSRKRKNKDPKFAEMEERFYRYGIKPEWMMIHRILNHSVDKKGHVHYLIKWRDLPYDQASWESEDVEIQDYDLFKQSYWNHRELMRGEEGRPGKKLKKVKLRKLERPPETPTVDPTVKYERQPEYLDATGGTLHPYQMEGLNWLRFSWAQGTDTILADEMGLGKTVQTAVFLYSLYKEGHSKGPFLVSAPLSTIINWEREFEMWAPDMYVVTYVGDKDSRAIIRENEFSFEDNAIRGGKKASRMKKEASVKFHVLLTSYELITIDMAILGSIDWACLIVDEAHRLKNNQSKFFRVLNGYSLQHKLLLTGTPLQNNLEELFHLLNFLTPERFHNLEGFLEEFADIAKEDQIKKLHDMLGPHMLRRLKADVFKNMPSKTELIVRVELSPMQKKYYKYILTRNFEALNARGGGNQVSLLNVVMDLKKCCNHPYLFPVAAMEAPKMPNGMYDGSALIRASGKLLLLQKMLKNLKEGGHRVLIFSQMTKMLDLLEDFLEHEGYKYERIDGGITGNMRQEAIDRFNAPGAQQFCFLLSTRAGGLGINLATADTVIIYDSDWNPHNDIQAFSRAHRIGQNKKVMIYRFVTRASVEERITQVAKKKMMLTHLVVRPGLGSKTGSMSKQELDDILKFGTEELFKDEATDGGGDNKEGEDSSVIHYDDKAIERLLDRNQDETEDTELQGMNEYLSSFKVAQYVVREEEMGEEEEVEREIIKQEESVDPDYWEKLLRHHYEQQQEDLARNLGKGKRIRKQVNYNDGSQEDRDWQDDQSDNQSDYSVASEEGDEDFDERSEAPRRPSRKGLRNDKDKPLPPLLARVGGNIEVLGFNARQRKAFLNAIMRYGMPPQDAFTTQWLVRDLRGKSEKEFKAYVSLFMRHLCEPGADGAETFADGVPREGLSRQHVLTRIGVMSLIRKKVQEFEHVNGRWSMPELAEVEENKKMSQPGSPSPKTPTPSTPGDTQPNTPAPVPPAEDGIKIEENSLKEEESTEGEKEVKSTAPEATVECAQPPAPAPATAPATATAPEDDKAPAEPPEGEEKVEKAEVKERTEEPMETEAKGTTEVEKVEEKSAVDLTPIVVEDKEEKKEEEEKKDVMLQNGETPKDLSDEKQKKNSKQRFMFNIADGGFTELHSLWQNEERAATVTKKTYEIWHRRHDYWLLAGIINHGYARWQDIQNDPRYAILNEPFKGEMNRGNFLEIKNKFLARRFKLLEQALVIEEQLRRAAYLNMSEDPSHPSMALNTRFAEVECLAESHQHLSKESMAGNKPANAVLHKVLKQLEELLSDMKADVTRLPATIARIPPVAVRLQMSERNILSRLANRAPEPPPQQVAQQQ

Biological target: T1, 3xFlag-tagged endogenous Par3L (Par3-like) (mouse) (UniProt Q9CSB4)
T1 sequence: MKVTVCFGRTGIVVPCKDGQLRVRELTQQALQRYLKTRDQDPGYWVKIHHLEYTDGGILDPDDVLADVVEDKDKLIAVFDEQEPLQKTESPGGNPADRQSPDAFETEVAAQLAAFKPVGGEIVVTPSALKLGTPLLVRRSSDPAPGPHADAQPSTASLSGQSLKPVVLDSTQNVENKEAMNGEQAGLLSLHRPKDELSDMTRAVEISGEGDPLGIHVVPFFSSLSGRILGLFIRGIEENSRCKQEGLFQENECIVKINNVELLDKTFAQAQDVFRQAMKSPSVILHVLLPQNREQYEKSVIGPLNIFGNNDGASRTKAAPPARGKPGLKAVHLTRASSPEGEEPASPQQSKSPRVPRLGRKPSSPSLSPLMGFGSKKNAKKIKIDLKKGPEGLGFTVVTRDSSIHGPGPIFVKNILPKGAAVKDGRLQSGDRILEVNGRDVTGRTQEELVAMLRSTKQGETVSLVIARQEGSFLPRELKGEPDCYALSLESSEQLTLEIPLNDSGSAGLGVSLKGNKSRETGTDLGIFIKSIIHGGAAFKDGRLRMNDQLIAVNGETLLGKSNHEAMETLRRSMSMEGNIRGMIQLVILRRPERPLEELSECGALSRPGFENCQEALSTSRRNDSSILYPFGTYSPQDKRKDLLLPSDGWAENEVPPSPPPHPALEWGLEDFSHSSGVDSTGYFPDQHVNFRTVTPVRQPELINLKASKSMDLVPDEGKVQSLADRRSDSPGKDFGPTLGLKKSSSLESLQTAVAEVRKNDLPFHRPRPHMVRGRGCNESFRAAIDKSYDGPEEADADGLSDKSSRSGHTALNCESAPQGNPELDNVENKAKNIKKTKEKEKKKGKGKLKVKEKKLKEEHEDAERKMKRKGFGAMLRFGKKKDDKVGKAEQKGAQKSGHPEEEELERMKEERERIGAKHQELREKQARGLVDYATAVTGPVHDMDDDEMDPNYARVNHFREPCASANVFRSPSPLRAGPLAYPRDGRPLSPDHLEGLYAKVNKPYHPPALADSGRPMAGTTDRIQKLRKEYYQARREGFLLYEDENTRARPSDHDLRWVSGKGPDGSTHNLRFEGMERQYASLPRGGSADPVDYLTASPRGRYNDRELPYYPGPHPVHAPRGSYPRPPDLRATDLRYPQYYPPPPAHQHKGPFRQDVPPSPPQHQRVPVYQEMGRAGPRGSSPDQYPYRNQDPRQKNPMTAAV
Experiment: affinity purification with mass spectrometry; anti-Flag M2 magnetic beads on lysates of kidneys and intestine (ground frozen tissue) and of pancreatic epithelial cells of Par3L^Flag/+ mice, WT mice as controls; 2 h at 4 °C; IP lysis buffer 25 mM Hepes pH 7.4, 150 mM NaCl, 0.5% TritonX-100; washes with 450 mM NaCl; on-bead trypsin digest; hits present in at least two of three tagged mice and absent in all controls; the tissue of a hit is told in the row's printed words

binding: binds
Molecule: Ssrp1 (from UniProt Q08943 1-708)

binding: binds
Molecule: Setx (from UniProt A2AKX3 1-2646)

binding: binds
Molecule: Spin1 (from UniProt Q61142 1-262)

binding: binds
B3: Retn (protein, UniProt Q99P87 21-114)
chain: SSMPLCPIDEAIDKKIKQDFNSLFPNAIKNIGLNCWTVSSRGKLASCPEGTAVLSCSCGSACGSWDIREEKVCHCQCARIDWTAARCCKLQVAS

binding: binds
B4: Mbnl2 (endogenous, mouse tissue) (protein, UniProt Q8C181 1-373)
chain: MALNVAPVRDTKWLTLEVCRQYQRGTCSRSDEECKFAHPPKSCQVENGRVIACFDSLKGRCSRENCKYLHPPTHLKTQLEINGRNNLIQQKTAAAMLAQQMQFMFPGTPLHPVPTFPVGPTIGTNAAISFAPYLAPVTPGVGLVPTEVLPTTPVIVPGSPPVTVPGSTATQKLLRTDKLEVCREFQRGNCARGETDCRFAHPADSTMIDTNDNTVTVCMDYIKGRCMREKCKYFHPPAHLQAKIKAAQHQANQAAVAAQAAAAAATVMTQSTAKALKRPLEATVDLAFPPGALHPLPKRQALEKSNGASTVFNPSVLHYQQALTSAQLQQHTAFIPTVPMMHSATSATVSAATTPATSVPFAATATANQIILK

Second part, the molecule before the results:

Molecule: Brd3 (from UniProt Q8K2F0 1-726)
binding: binds

Molecule: Chd4 (from UniProt Q6PDQ2 1-1915)
binding: binds

B1: Copz2 (protein, UniProt Q9JHH9 1-205)
chain: MQRPEAWPRPHPGEGASAAQAGGAAPPTRATEQREPSLYTIKAVFILDNDGRRLLAKYYDDTFPSVKEQMVFEKNVFNKTSRTESEIAFLGGMTIVYKSSIDIFLYVVGSSSENELMLMSVLACLFDSLSHILRKNVEKRWLLENMDGAFLVLDETVDGGVILESDPQQVIQKVNFRTDDSGLTEQSVAQVLQSAKEQIKWSLLK
binding: binds

B2: Luzp1 (protein, UniProt Q8R4U7 1-1068)
chain: MAELTNYKDAASNRHLRFKLQSLSRRLDELEEATKNLQRAEDELLDLQDKVIQAEGSDSSTLAEIEVLRQRVLKIEGKDEEIKRAEDLCHTMKEKLEEEENLTRELKSEIERLQKRMVDLEKLEEALSRSKNECSQLCLSLNEERNLTKKISSELEMLRVKVKELESSEDRLDKTEQSLVSELEKLKSLTLSFVNERKYLNEKEKENEKIIKELTQKLEQNKKMNRDHMRNASTFLERNDLRIEDGISSTLSSKESKRKGSLDYLKQVENETRDKSENEKNRNQEDNKVKDLNQEIEKLKTQIKHFESLEEELKKMRAKNNDLQDNYLTELNRNRSLASQLEEIKLQVRKQKELGNGDIEGEDAFLLGRGRHERTKLKGHGSEASVSKHTSRELSPQHKRERLRNREFALSNEHYSLSSKQASSPVFTNKRAAKASNMGMGTDSGTQETKRTEDRFAPGSSHSEGKRGREQPSVLSRYPPAAQEHTKVWKGAPKPGTESGLKGKVEKTTRTFSDSTHVSVPNDIVGKGDKTSDLSSEAHCGKRGQVPGHASQGTQAVESSCSKAIGALSSSQKASSEGLSKGKKTANGLAADANFSNSKAPILSKYPYSSRSQENILQGFSLPNKEGVDQPVAVVMEDSSQHEALRCRVIKSSGREKPDSDDDLDIESFVTAKLVNTTITPEPEPKPQPNSREKVKSRGGTRTALFENDKNAAIENDSVKPTRPSSNAIEFPDANCAGVKNQRPFSPREALRSRAIIKPVIIDKDVKKIMGGSGTEVVLEKQKSTSKSVTSKVTSSITIYPSDSSGPRAVPSEAPRERHTSTSNIQVGPPELTAISNHVSSPLELSIHKHDITLQLTEAERVGDGSPKNRAEMVVSRSSILIKPSESVEKNSHVPPAETIRWKSHSASSDSRHITVRNAWKSKRDLKCSEDPPTGIGRNMEATNAYTQRPCTDFLELEQPRSQPSEQGARRVGNSGDAPELSPRRTQSSLTASEVLTRRDRMGGAITAASCNHSSSMEEGEDSTFVTSRRIHNPLEHSELPGKQGLPEPEPVWTEERLHPAKPYAEED
binding: binds

B5: Cpsf7 (endogenous, mouse tissue) (protein, UniProt Q8BTV2 1-471)
chain: MSEGVDLIDIYADEEFNQDSEFNNTDQIDLYDDVLTAASQPSDDRSSSTEPPPPVRQEPAPKPNNKTPAILYTYSGLRSRRAAVYVGSFSWWTTDQQLIQVIRSIGVYDVVELKFAENRANGQSKGYAEVVVASENSVHKLLELLPGKVLNGEKVDVRPATRQNLSQFEAQARKRECVRVPRGGIPPRAHSRDSSDSADGRATPSENLVPSSARVDKPPSVLPYFNRPPSALPLMGLPPPPIPPPPPLSSSFGVPPPPPGIHYQHLMPPPPRLPPHLAVPPPGAIPPALHLNPAFFPPPNATVGPPPDTYMKASTPYNHHGSRDSGPPPSTVSEAEFEEIMKRNRAISSSAISKAVSGASAGDYSDAIETLLTAIAVIKQSRVANDERCRVLISSLKDCLHGIEAKSYSVGASGSSSRKRHRSRERSPSRSRESSRRHRDLLHNEDRHDDYFQERNREHERHRDRERDRHH
binding: binds

B6: Igj (protein, UniProt P01592 22-159)
chain: GDDEATILADNKCMCTRVTSRIIPSTEDPNEDIVERNIRIVVPLNNRENISDPTSPLRRNFVYHLSDVCKKCDPVEVELEDQVVTATQSNICNEDDGVPETCYMYDRNKCYTTMVPLRYHGETKMVQAALTPDSCYPD
binding: binds

B7: Copb2 (protein, UniProt O55029 1-905)
chain: MPLRLDIKRKLTARSDRVKSVDLHPTEPWMLASLYNGSVCVWNHETQTLVKTFEVCDLPVRAAKFVARKNWVVTGADDMQIRVFNYNTLERVHMFEAHSDYIRCIAVHPTQPFILTSSDDMLIKLWDWDKKWSCSQVFEGHTHYVMQIVINPKDNNQFASASLDRTIKVWQLGSSSPNFTLEGHEKGVNCIDYYSGGDKPYLISGADDRLVKIWDYQNKTCVQTLEGHAQNVSCASFHPELPIIITGSEDGTVRIWHSSTYRLESTLNYGMERVWCVASLRGSNNVALGYDEGSIIVKLGREEPAMSMDANGKIIWAKHSEVQQANLKAMGDTEIKDGERLPLAVKDMGSCEIYPQTIQHNPNGRFVVVCGDGEYIIYTAMALRNKSFGSAQEFAWAHDSSEYAIRESNSIVKIFKNFKEKKSFKPDFGAESIYGGFLLGVRSVNGLAFYDWENTELIRRIEIQPKHIFWSDSGELVCIATEESFFILKYLSEKVLAAQETHEGVTEDGIEDAFEVLGEIQEIVKTGLWVGDCFIYTSSVNRLNYYVGGEIVTIAHLDRTMYLLGYIPKDNRLYLGDKELNIVSYSLLVSVLEYQTAVMRRDFSMADKVLPTIPKEQRTRVAHFLEKQGFKQQALTVSTDPEHRFELALQLGELKIAYQLAVEAESEQKWKQLAELAISKCQFSLAQECLHHAQDYGGLLLLATASGNASMVNKLAEGAERDGKNNVAFMSYFLQGKLDACLELLIRTGRLPEAAFLARTYLPSQVSRVVKLWRENLSKVNQKAAESLADPTEYENLFPGLKEAFVVEEWVKETHADLWPAKQYPLVTPNEERNVMEEAKGFQPSRPTAQQEPDGKPASSPVIMASQTTHKEEKSLLELEVDLDNLELEDIDTTDINLDEDILDD
binding: binds

B8: Fip1L1 (endogenous, mouse tissue) (protein, UniProt Q9D824 1-581)
chain: MSAGEVERLVELSGGTGGDEEEEWLYGGPWDVHVHSDLAKDLDENEVERPEEENASANPPSGIEEEAAENGVAKPKVTETEDDSDSDSDDDEDDVHVTIGDIKTGAPQYGSYGTAPVNLNIKAGGRVYGNTGTKVKGVDLDAPGSINGVPLLEVDLDSFEDKPWRKPGADLSDYFNYGFNEDTWKAYCEKQKRIRMGLEVIPVTSTTNKITVQQGRTGNSEKEAALPSTKAEFTSPPSLFKTGLPPSRNSTSSQSQTSTASRKASSSVGKWQDRYGRAESPDLRRLPGAIDVIGQTITISRVEGRRRANENSNIQVLSDRSATEVDNNFSKPPPFFPPGAPPTHLPPPPFLPPPPTVSTAPPLIPPPGIPITVPPPGFPPPPGAPPPSLIPTIESGHSSGYDSRSARAFPYGNVAFPHLTSSAPSWPSLVDTTKQWDYYARREKDRDRDRERDRDRERERDRDRERERTRERERERDHSPTPSVFNSDEERYRYREYAERGYERHRASREKEERHRERRHREKEETRHKSSRSNSRRRHESEEGDSHRRHKHKKSKRSKEGKEAGSEPVPEQESTEAAPAE
binding: binds
